Results are given in words; binding and its absence hold for the method and conditions named. In cells and extracts the contact can be indirect. Some results given as binding are weak or reduced against the parent protein; the word gives no strength. For some of these results: Where a sequence is shown, tags or fusion partners need not be part of it. One block for each molecule: values may come before it.
Tests used:
[1] = target: T1, Membrane-associated RING-CH protein 8 (MARCH8) (human) (UniProt Q5T0T0); test: co-IP; immunoprecipitation from cell lysates (Fig. 3B), cell line and precipitating antibody not stated for this panel; antibody 1 h at 4 °C, protein A/G-agarose beads 3 h at 4 °C, Western blot
T1 sequence: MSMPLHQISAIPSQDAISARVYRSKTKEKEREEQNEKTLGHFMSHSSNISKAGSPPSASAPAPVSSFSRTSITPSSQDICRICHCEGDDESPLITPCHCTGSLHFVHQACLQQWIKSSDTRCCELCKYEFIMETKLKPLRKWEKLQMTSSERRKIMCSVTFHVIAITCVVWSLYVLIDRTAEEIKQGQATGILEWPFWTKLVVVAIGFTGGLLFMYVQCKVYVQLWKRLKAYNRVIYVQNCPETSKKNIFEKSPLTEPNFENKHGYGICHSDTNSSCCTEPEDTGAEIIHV

Sequences of proteins named here, by UniProt entry; tags and fusion partners are left off.
UniProt P14618: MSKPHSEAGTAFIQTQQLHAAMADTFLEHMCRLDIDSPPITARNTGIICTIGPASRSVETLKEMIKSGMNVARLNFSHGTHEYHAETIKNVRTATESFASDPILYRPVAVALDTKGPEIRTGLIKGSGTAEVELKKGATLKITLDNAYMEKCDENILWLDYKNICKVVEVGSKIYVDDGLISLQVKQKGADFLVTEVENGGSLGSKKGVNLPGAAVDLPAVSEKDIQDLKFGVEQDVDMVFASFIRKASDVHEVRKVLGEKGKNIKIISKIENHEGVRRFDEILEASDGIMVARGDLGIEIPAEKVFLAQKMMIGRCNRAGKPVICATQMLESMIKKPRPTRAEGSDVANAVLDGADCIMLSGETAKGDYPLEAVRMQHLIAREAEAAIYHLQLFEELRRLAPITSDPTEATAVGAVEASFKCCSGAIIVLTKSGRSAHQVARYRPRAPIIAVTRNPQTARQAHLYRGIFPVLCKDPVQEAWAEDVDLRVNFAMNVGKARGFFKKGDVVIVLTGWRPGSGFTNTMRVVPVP

[2] = target: T1, Membrane-associated RING-CH protein 8 (MARCH8) (human); test: co-IP; Co-IP in SW480 cells (Fig. 3G); lysates with anti-MARCH8, anti-HK2 or IgG 1 h at 4 °C, protein A/G-agarose beads 3 h at 4 °C, Western blot

binding [1]: no binding
Molecule: pyruvate kinase M2 (PKM2) (from UniProt P14618 1-531)

binding [2]: binds
binding [1]: binds
B1: hexokinase 2 (HK2) (protein, UniProt P52789 1-917)
chain: MIASHLLAYFFTELNHDQVQKVDQYLYHMRLSDETLLEISKRFRKEMEKGLGATTHPTAAVKMLPTFVRSTPDGTEHGEFLALDLGGTNFRVLWVKVTDNGLQKVEMENQIYAIPEDIMRGSGTQLFDHIAECLANFMDKLQIKDKKLPLGFTFSFPCHQTKLDESFLVSWTKGFKSSGVEGRDVVALIRKAIQRRGDFDIDIVAVVNDTVGTMMTCGYDDHNCEIGLIVGTGSNACYMEEMRHIDMVEGDEGRMCINMEWGAFGDDGSLNDIRTEFDQEIDMGSLNPGKQLFEKMISGMYMGELVRLILVKMAKEELLFGGKLSPELLNTGRFETKDISDIEGEKDGIRKAREVLMRLGLDPTQEDCVATHRICQIVSTRSASLCAATLAAVLQRIKENKGEERLRSTIGVDGSVYKKHPHFAKRLHKTVRRLVPGCDVRFLRSEDGSGKGAAMVTAVAYRLADQHRARQKTLEHLQLSHDQLLEVKRRMKVEMERGLSKETHASAPVKMLPTYVCATPDGTEKGDFLALDLGGTNFRVLLVRVRNGKWGGVEMHNKIYAIPQEVMHGTGDELFDHIVQCIADFLEYMGMKGVSLPLGFTFSFPCQQNSLDESILLKWTKGFKASGCEGEDVVTLLKEAIHRREEFDLDVVAVVNDTVGTMMTCGFEDPHCEVGLIVGTGSNACYMEEMRNVELVEGEEGRMCVNMEWGAFGDNGCLDDFRTEFDVAVDELSLNPGKQRFEKMISGMYLGEIVRNILIDFTKRGLLFRGRISERLKTRGIFETKFLSQIESDCLALLQVRAILQHLGLESTCDDSIIVKEVCTVVARRAAQLCGAGMAAVVDRIRENRGLDALKVTVGVDGTLYKLHPHFAKVMHETVKDLAPKCDVSFLQSEDGSGKGAALITAVACRIREAGQR

binding [1]: no binding
B2: glucose transporter 4 (GLUT4) (protein, UniProt P14672 1-509)
chain: MPSGFQQIGSEDGEPPQQRVTGTLVLAVFSAVLGSLQFGYNIGVINAPQKVIEQSYNETWLGRQGPEGPSSIPPGTLTTLWALSVAIFSVGGMISSFLIGIISQWLGRKRAMLVNNVLAVLGGSLMGLANAAASYEMLILGRFLIGAYSGLTSGLVPMYVGEIAPTHLRGALGTLNQLAIVIGILIAQVLGLESLLGTASLWPLLLGLTVLPALLQLVLLPFCPESPRYLYIIQNLEGPARKSLKRLTGWADVSGVLAELKDEKRKLERERPLSLLQLLGSRTHRQPLIIAVVLQLSQQLSGINAVFYYSTSIFETAGVGQPAYATIGAGVVNTVFTLVSVLLVERAGRRTLHLLGLAGMCGCAILMTVALLLLERVPAMSYVSIVAIFGFVAFFEIGPGPIPWFIVAELFSQGPRPAAMAVAGFSNWTSNFIIGMGFQYVAEAMGPYVFLLFAVLLLGFFIFTFLRVPETRGRTFDQISAAFHRTPSLLEQEVKPSTELEYLGPDEND
